Assay results reported in publication PMC4977824.
These are yes or no findings as the source states them, for the method shown. Binding seen in cells or lysates may run through a third protein. These calls come from enrichment with a bait or labelling near it, and not all partners need be listed. A no says only that the protein was not detected with the bait. For some assays here: Sequences can lack the tags named with a protein.

Protein sequences, listed by entry. Tags and fused reporters are not part of them. Lines headed by an entry give the natural chain unless they say otherwise; changes in a name come on top.
UniProt Q05062: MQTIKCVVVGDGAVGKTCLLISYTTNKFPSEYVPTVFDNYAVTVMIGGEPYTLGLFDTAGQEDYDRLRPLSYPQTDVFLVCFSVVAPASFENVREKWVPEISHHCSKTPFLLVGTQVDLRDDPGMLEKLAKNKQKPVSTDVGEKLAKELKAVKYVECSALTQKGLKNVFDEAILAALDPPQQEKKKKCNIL
UniProt A0A1C3NSL9: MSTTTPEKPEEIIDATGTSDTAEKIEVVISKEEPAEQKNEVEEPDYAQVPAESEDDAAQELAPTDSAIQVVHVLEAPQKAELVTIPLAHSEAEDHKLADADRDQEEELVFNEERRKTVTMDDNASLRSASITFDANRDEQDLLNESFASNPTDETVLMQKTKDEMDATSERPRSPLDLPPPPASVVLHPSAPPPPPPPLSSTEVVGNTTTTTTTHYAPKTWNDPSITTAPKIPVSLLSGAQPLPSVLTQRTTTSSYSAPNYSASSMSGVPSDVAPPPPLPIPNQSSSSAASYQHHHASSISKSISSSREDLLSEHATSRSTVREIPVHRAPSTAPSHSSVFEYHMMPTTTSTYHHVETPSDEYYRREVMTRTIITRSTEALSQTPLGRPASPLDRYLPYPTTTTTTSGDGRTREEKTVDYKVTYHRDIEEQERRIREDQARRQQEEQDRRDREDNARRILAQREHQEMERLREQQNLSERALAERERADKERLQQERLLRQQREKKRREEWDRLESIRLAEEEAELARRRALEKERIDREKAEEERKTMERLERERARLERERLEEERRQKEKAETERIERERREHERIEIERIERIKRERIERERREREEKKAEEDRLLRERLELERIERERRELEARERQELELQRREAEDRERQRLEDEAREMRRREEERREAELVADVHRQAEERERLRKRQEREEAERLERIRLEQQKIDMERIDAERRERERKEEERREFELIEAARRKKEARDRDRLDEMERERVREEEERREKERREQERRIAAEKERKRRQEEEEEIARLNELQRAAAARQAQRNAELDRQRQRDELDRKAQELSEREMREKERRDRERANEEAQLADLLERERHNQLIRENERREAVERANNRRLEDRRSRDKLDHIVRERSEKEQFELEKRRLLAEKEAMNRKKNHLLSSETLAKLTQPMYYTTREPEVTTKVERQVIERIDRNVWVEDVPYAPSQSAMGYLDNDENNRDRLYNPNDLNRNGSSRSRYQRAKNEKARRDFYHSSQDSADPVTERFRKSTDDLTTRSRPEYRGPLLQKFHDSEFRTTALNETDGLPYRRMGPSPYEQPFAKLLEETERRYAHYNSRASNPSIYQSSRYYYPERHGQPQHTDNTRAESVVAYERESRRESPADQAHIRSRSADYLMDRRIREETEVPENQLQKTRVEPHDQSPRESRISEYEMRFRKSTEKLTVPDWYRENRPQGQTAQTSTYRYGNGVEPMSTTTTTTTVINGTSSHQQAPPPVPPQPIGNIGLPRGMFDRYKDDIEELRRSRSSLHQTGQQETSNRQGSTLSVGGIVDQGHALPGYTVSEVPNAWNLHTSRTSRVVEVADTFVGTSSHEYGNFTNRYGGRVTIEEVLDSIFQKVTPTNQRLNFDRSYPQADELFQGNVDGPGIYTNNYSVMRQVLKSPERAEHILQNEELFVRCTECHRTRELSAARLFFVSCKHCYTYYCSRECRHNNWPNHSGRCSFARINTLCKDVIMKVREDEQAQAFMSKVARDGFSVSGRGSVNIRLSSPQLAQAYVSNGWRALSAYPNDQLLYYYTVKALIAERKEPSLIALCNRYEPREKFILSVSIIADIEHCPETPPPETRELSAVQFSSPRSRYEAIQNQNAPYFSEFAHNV
UniProt G5EEI1: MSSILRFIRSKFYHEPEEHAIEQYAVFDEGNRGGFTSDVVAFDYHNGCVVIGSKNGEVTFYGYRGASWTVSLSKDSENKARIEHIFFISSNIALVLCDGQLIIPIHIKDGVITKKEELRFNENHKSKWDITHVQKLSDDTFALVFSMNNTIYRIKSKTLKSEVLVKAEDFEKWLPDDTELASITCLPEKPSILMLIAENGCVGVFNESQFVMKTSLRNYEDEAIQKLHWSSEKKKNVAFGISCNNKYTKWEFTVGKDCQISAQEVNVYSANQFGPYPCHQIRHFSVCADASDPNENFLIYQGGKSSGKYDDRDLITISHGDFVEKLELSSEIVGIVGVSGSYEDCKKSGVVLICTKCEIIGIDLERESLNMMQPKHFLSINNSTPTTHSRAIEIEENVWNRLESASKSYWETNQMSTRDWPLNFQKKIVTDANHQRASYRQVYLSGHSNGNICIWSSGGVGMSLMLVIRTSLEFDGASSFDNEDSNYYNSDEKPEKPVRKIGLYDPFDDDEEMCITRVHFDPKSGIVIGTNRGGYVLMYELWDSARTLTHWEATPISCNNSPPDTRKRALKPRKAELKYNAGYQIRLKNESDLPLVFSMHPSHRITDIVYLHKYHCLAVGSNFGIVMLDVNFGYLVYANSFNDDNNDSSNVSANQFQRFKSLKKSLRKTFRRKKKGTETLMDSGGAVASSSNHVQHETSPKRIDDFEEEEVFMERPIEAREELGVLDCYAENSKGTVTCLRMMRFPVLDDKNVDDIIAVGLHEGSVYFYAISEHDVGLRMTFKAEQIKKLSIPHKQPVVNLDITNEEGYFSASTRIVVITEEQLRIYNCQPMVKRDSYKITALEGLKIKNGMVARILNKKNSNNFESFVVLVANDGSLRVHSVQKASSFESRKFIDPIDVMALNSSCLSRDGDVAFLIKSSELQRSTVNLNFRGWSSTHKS

T1: DLG-1::GTA (DLG-1::GFP-2xTEV-Avi) (C. elegans) (UniProt G5ECY0)
T1 sequence (chain, biotin on the Avi tag (in vivo, by BirA)): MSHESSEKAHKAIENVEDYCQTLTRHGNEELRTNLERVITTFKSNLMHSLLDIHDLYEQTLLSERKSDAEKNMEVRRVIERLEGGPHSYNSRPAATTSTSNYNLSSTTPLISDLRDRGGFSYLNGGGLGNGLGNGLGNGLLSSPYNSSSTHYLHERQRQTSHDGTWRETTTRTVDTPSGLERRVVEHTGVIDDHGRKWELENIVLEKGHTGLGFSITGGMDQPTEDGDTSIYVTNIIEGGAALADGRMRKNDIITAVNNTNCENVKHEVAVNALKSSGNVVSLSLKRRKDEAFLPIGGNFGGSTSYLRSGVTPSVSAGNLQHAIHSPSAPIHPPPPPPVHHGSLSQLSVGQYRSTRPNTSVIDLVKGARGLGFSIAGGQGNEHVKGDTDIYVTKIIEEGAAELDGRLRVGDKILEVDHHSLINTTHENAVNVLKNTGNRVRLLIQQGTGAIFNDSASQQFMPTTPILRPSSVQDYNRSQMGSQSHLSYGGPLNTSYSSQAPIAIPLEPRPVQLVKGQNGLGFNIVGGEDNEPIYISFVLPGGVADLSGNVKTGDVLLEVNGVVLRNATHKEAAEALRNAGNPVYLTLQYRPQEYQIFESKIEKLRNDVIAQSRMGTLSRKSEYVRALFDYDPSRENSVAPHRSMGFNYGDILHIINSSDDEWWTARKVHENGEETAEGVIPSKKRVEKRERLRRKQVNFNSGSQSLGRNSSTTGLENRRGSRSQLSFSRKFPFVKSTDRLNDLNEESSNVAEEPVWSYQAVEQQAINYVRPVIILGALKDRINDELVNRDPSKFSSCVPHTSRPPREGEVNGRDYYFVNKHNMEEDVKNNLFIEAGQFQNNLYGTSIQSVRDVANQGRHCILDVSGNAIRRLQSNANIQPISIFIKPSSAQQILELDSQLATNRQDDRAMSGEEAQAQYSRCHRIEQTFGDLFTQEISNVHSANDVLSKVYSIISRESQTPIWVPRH

T2: LET-413::GTA (LET-413::GFP-2xTEV-Avi) (C. elegans) (UniProt O61967)
T2 sequence (chain, biotin on the Avi tag (in vivo, by BirA)): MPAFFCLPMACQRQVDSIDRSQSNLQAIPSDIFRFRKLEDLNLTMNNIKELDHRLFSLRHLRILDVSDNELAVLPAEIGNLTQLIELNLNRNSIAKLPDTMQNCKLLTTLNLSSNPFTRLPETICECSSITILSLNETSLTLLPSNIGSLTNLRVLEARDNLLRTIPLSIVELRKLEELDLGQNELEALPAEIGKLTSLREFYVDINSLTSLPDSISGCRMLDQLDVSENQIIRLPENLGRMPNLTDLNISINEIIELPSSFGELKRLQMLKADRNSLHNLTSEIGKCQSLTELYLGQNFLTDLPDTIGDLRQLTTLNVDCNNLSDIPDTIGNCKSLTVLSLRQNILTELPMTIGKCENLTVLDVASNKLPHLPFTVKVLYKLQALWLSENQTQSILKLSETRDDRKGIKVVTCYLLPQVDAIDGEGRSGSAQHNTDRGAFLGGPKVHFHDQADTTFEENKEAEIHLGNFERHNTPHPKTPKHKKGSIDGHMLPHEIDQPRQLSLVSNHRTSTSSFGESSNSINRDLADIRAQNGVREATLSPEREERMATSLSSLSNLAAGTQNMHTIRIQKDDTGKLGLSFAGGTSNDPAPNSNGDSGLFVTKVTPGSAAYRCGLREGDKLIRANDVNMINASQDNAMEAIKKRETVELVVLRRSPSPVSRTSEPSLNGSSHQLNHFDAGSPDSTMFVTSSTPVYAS

B1: QARS-1 (protein, UniProt O62431 1-786)
chain: MATKEELLSLGLSDSKVAETLKNVKLTETIGSIVKLASESGEISKQKGTLLYQLATKLKPQVAAHTPLVVKYIMNDGIKTEPQLSAAIEYLLSHTVKGIQVPDFEKSCGVGVVVTIDDIEAAVTKVIGQHREKIVAERYSFPAGKLLGELRALLPWADGAITKKEVDLRFLELLGPKTAEDLAPKKKEKKPEGPKPSKDAAAAATAPGTKNQKEASPEEFADGAETMDELLRTRAHFHKVGENFKQDGYVTTPKTAELLKAHVAAVGGKVVTRFPPEPNGVLHIGHAKAININFGYAKAMGGVCNLRFDDTNPEKEEEKFFSAIEDIVHWLGYDPARVTHSSDNFQQLYLWAVKLIQKGLAFVCHQKVEEMRGFEVQLSPWRERPIEENIQLFEDMKNGKFDEGEATLRLKLTLEEGKVDPVAYRIKYVPHHRTGNQWCIYPTYDYTHCLCDSIENITHSLCTKEFQSRRSSYYWLCNALDIYCPVQWEYGRLNVNYTVVSKRKILKLITTKTVNDWDDPRLFTLTALRRRGIPSEAINRFVAKLGLTMSQMVIDPHVLDATVRDYLNIHAPRTMAVLEGLKLTIENFSELNLPSSVDVPDFPSDPTDPRKHSVSVDREIFIEKSDYKPDDSDKSFRRLTPKQAVGLKHIGLVLRFVKEVKDAEGHVTEVVVKAEKLSEKDKPKAFIHWVAKPVSCEVRLYDRLFKSKNPEDAQLVPGGFLSDINPDSLTVVYNALIDQSIAKSKVYDRFQFERIGFFCVDRDSTSSTLVFNRTVMLKDGGASGKN
B2: B0303.3 (protein, UniProt P34255 1-448)
chain: MLRAVSTSFGTARAASAVAKKNMPNIVLVDAVRTPFVVSGTVFKDLMAVDLQKEAIKALVEKTKLPYEQLDHIICGTVIQECKTSNIAREAALLAGVPDKIPAHTVTLACISSNVAMTTGMGMLATGNANAIIAGGVELLSDVPIRYNRNARKAMLGMNKAKDVPSKLKIGGQIVKNLLSPELPAVAEFSTGETMGHSGDRLAAAFNVSRREQDEFAIRSHTLASEAAKNGKFTDVVPVFLDGKKPKTIKEDNGIRVSTLEKLSSLKPAFVKPHGTVTAANASYLTDGASAALIMTEEYALANGYKPKAYLRDYLYVAQDPKDQLLLSPAYVIPKLLDKAGLTLKDVDVFEIHEAFAGQVLANLNAMDSDYFCKEQMKRSGKFGRVPMDKLNLWGGSLSIGHPFGATGVRLATHSAHRLKEEKGQYAVIAACAAGGHGVGMLIEAYGK
B3: ATAD-3 (endogenous) (protein, UniProt Q20748 1-595)
chain: MSWLFGVQKNATPQIPDDFQAGAAPGGPQQPGQGQRQEGNSKMAYSFDSTALERAAKAARDLEKFPNAKEALELSRMQEVTRQKEVENETKKIEAQLANMKSEHIRVAEEERRKTLGEETKHAHSRAEYQDQLARKRAEEELAMKARMQEESLRKQEESVKKQEQLRKQTIEHELALKHKYELEKIDAETRARAKAARDNRDVNLEQMKLHEEENRKTVIEKIKTSGELIGSGLNQFLNDKTKIAAAVGGLTALAVGWYTAKRGTGVTARYIESRLGKPSLVRETSRITPLEVLKHPIKSVQMMTRQKKDPLNGVVLPPALERRLRDIAITTSNTKRNNGLFRNVMFYGPPGTGKTLFAKSLAQHSGLDYAVLTGGDIAPLGRDGVSAIHKVFDWASKSRKGLIVFIDEADAFLQKRSKNGMSEDTRAALNAFLFRTGEQSRKFMLVVASNQPEQFDWAVNDRFDQLVEFTLPGMEERERILLQYFNEHIVTPATSGSRSQRLKLDNFDWVAKCNEVAKKTSGMSGRELSKLVIGWQASAYASETGVLTEAIVDRNTADAMVQHEHKMEWLEKEQLKARNQEVKFGTTLKRETAV
B4: DIM-1 (protein, UniProt Q18066 1-640)
chain: MASLAPFFKISDSILADESFDDLEINNHFKCTSKDLNEYPRTSTPLPGEITSIYSLPRSYNNQNLCTRSKPTTFISQNQQKGMTEKPKHSEYFLRLMKTRQEMQKKLTAKNGSNKSVQQYLRKLPPSTSKEVTIIPVKMKPDDNSVYISKELSDRTDTKLPKVSTKEVEKFGEQSDDEERHERSHIASDFNQKTPQSTHATSNHRKRIFIGRTGAKQQHVSKKATESELPYNIDVSTSNTTNATEALKLLKRPLLLPSKDPRSSKMPRLDLNQHQFRCKQYIVHSQFTCTQIEKTFKCRVGTSTESEDLDDYYFDAMPDGKAPHFPQQPVARQNDDGSLELECFVDANPTPQVKWYYDNKEVENSGRFSANLANKGSDSYSAILTIKELADADAGAYRCAIVNPHGKGNANFNLKLTGFSSPTFVEKPQISSRDDGQVMVMEFRAKSILEPTFVWQKLVGGGAEEIIANSDRIKAVKKLEAGNVYYSALEIKEPTKDKDAGQFICTVKNESGKLTATFTVKFEVPEGAPSFTRKPQILQQTSAGGEPAICFDIGYSARMNPQVTWISPKSKKMKESSRIKFKTNDEGNGNFTAQLELTNYKAKDSGTYTCNIKNDAGEANVELTLNIEGPLDDYADDSEN
B5: COR-1 (protein, UniProt Q21624 1-607)
chain: MAQIVRQSKFRHVFCKPVKHESCMSDIRVTEITWDSLFCDVNPKFIAFINRGAGGPFMVIPVNKIGRVDKDYPFVDAHKAPCLEVAWSPFNDNVIASCSEDTTCKVWVIPDRGLNRNLSEPAVELTGHQKRVNTIAWHPVANNVLLTAGGENVMFMWNVGTGEALLEISGHPDQIWSINFNFDGSQFVTTCKDKKIRILDSHTGEVVHEGMGHEGVKPQRAIFVKDGLILSTGFTKRSERLYALRAPEDLSTPIVEEELDTSNGVVFPFYDEDSGLVYLVGKGDCAIRYYEVNNDAPYVHYINTYTTNEPQRAVGFQSKRGMSSEENEINRIYKLTTKGVVDILQFFVPRKSDLFQHDLYPDTRSTIPALTAEEFMEGKNAAPNRQPVNAAAAAAAAKPKVQVAKKANILSTLAPTAAESVPTQSYSERPPSSQQPSPRPSASPRPRPVVDDDMGIVTMREAPPSRPASSRASRTEIPPKEESKVDPMKPKQAVQLKSRAARDEPGGGAQTAGQRRAAAELERIKRDQSRTADEDNTLAPPPSSSRASASPRGSVSAASDVGHVPQNMDELLEDLMKMKAVLRQHERRIRMLEEEIADRNMSNAYSF
B6: LEC-1 (protein, UniProt P36573 1-279)
chain: MSAEEPKSYPVPYRSVLQEKFEPGQTLIVKGSTIDESQRFTINLHSKTADFSGNDVPLHVSVRFDEGKIVLNSFSNGEWGKEERKSNPIKKGDSFDIRIRAHDDRFQIIVDHKEFKDYEHRLPLSSISHLSIDGDLYLNHVHWGGKYYPVPYESGLANGLPVGKSLLVFGTVEKKAKRFHVNLLRKNGDISFHFNPRFDEKHVIRNSLAANEWGNEEREGKNPFEKGVGFDLVIQNEEYAFQVFVNGERYISFAHRADPHDIAGLQISGDIELSGIQIQ

What was measured:
Experiment in all cases: affinity purification with mass spectrometry; GTA-tagged bait biotinylated in vivo (BirA ubiquitous, intestine, seam/hyp7 or neurons) captured on streptavidin-coated beads from whole-animal lysate (L3/L4; 150 mM NaCl, 20 mM Tris pH 7.8, 5 mM EDTA, 1 % Triton X-100), 1.5 h at 4 °C, released by TEV protease, LC-MS/MS, SAINT scoring against GFP::TEV::Avi controls, triplicates
[1] = biological target: T1, DLG-1::GTA (DLG-1::GFP-2xTEV-Avi) (C. elegans)
[2] = biological target: GTA::CDC-42 (Avi-2xTEV-GFP::CDC-42) (C. elegans) (UniProt Q05062)
[3] = biological target: T2, LET-413::GTA (LET-413::GFP-2xTEV-Avi) (C. elegans)

Row | Molecule | binding [1] | binding [2] | binding [3]
1 | AJM-1 (from UniProt A0A1C3NSL9 1-1644) | binds | no binding | no binding
2 | LGL-1 (endogenous) (from UniProt G5EEI1) | no binding | no binding | binds
3 | MAPH-1.2 (C. elegans (endogenous in whole animals)) | no binding | – | no binding
4 | B1 | binds | – | binds
5 | B2 | – | – | binds
6 | B3 | binds | no binding | no binding
7 | B4 | binds | – | –
8 | B5 | binds | – | –
9 | B6 | binds | – | –
